{"sequences": {"note": "Amino acid sequences for entries named in this document (tags omitted).", "UniProt Q09472": "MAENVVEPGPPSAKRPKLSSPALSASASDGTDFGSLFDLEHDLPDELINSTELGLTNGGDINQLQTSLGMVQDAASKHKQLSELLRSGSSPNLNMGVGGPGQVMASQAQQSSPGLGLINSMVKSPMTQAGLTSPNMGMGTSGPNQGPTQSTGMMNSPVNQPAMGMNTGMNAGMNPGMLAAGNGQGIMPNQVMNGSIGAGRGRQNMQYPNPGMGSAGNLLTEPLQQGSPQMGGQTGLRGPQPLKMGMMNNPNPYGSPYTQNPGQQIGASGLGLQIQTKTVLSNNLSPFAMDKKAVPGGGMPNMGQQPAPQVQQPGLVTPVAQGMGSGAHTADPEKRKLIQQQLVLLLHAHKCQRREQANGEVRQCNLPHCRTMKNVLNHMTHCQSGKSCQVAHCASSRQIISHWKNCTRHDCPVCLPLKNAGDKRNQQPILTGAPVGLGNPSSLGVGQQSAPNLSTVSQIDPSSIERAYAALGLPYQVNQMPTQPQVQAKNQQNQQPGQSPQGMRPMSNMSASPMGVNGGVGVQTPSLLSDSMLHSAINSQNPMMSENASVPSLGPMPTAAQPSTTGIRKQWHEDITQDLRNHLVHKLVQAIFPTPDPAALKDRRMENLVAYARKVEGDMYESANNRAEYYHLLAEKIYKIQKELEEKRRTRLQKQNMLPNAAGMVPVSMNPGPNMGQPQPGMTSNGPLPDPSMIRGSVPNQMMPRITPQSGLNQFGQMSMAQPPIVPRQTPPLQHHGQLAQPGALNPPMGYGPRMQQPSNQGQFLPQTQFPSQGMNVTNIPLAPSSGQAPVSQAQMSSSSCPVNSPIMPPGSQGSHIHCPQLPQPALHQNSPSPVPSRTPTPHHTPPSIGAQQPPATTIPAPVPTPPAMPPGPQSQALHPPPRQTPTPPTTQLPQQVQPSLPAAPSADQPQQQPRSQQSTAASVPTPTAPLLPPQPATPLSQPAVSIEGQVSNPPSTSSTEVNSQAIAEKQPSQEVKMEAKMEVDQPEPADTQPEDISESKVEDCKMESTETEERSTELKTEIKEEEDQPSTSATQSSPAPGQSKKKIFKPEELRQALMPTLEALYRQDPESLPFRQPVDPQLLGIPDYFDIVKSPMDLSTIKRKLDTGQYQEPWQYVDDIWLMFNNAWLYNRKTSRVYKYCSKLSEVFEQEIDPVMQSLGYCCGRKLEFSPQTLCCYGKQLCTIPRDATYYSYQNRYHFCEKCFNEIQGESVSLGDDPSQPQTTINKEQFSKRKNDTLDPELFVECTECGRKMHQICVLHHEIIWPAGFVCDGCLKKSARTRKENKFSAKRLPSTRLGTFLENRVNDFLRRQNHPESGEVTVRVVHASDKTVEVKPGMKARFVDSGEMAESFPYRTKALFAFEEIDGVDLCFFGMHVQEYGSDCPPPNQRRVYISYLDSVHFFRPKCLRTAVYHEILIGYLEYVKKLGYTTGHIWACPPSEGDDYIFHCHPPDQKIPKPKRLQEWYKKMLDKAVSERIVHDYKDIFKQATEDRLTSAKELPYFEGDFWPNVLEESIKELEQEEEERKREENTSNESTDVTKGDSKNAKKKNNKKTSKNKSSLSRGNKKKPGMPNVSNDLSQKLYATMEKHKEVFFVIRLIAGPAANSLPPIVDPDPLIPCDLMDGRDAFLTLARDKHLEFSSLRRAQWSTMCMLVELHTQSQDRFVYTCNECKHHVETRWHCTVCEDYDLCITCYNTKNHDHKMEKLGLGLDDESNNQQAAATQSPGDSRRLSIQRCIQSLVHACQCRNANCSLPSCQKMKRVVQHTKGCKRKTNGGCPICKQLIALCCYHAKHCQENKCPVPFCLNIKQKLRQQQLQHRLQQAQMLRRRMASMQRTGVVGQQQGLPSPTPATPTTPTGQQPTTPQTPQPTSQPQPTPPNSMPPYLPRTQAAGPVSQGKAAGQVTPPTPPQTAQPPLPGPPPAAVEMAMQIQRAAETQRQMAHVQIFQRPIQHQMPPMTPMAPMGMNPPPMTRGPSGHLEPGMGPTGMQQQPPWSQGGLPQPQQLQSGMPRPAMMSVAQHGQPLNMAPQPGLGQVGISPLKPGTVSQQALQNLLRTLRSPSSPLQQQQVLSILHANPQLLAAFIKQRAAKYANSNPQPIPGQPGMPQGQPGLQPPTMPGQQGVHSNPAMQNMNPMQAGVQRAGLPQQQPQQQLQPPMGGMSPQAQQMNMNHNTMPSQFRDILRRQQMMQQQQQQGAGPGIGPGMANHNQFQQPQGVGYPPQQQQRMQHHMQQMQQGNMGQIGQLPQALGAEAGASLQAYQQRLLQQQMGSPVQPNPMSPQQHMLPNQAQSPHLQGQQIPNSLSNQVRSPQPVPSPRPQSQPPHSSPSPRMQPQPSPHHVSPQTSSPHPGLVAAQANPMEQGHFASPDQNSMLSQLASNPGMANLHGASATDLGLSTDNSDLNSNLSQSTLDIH", "UniProt Q15796": "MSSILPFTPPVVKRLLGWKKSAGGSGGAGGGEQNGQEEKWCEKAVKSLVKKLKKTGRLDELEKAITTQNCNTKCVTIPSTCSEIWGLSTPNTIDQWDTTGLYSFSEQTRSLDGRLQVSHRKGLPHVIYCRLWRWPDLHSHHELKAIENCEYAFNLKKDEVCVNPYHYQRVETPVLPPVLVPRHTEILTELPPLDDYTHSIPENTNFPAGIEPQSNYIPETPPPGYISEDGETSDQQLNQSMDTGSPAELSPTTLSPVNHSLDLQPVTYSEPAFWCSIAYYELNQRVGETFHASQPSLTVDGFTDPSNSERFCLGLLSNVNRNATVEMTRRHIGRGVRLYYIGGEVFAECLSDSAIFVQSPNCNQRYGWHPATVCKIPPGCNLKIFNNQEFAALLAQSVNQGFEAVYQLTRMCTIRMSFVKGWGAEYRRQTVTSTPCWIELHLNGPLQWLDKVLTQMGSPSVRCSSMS", "UniProt P84022": "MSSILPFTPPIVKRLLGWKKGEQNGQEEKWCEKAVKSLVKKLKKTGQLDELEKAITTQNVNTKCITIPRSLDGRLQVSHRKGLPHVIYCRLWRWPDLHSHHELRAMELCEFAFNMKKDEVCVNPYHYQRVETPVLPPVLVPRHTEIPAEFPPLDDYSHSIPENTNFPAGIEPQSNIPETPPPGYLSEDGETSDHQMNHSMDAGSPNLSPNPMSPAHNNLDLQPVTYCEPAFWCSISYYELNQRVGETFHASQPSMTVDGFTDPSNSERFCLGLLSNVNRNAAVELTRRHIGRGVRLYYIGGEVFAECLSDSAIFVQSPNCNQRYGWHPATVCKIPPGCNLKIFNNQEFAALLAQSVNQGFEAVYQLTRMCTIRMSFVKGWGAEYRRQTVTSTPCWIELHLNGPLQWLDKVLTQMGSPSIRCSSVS"}, "source": "paper PMC11342681", "target": "acetyltransferase p300 (human (endogenous in MCF10A MII)) (UniProt Q09472)", "experiment": "co-IP; lysates of MCF10A MII cells (1% Triton X-100, 20 mM Tris-HCl pH 7.5, 150 mM NaCl, 10% glycerol), treated or not with 5 ng/ml TGFβ for 45 min or 6 h; IP overnight with antibody to p63, HDAC3, SUZ12, p300 or SMAD2/3 or IgG control on Dynabeads; immunoblotting; in some panels ALK5 inhibitor SB505124, p38 inhibitor SB203580, or siRNA against SMAD2 and SMAD3 or p63", "note": "No constants are given. Whether binding was seen depends on the method and setting. In cells and extracts the contact can be indirect. Some entries that bind do so weakly or less than the wild type.", "data": [{"substance": "SMAD2 (from UniProt Q15796 1-467)", "values": [{"measurement": "binding", "result": "binds"}]}, {"substance": "SMAD3 (from UniProt P84022 1-425)", "values": [{"measurement": "binding", "result": "binds"}]}]}
